In article PMC10284794:
No constants are given. Whether binding was seen depends on the method and setting. In cells and extracts the contact can be indirect. Some results given as binding are weak or reduced against the parent protein; the word gives no strength. Blank lines part the entries; values can stand above or below the molecule they belong to.

Amino acid sequences for entries named in this document (tags omitted). Residues count along the entry.
UniProt P05164, residues 49-745: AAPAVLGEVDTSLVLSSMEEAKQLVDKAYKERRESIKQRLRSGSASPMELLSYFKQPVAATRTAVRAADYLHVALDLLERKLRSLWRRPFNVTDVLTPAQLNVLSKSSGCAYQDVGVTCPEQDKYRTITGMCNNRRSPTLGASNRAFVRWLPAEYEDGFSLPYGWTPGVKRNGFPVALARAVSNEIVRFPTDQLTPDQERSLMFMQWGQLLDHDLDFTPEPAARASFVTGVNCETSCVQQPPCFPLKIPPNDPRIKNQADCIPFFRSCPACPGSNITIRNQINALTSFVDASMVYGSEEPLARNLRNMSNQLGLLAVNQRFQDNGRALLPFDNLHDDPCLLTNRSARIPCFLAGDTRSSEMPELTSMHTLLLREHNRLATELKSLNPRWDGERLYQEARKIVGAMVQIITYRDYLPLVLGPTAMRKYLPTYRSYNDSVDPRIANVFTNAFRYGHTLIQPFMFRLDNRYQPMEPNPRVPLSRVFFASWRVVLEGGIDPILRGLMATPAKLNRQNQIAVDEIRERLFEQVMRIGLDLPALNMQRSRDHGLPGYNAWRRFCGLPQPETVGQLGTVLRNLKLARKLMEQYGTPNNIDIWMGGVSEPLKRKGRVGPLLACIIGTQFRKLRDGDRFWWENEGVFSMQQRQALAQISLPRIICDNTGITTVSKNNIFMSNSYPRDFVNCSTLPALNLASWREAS
UniProt Q9QUK6, residues 26-835: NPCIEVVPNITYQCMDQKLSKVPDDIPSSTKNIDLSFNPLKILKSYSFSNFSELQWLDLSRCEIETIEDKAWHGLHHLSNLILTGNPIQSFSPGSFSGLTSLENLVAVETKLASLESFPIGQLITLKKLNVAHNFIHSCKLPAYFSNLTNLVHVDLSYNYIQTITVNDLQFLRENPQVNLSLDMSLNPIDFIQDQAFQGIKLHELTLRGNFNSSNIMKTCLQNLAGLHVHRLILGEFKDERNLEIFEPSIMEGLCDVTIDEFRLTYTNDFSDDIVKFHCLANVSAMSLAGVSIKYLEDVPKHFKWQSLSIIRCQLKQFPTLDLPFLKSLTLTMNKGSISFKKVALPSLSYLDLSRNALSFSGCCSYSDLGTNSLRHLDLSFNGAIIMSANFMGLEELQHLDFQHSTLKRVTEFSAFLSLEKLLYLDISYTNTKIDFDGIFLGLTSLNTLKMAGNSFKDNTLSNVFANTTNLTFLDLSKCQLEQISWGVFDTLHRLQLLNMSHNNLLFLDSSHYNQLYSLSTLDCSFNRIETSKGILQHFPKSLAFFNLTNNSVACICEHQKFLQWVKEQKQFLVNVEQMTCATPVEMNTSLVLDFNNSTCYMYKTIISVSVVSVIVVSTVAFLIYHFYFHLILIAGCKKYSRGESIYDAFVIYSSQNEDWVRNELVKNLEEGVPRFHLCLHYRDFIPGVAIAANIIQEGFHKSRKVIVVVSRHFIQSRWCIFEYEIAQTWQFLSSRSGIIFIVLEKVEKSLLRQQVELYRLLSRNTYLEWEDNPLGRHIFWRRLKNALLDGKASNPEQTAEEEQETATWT

Tests used:
[1] = target: T1, RNF128, RING finger protein 128 (human (endogenous in HL-60)) (UniProt Q8TEB7); assay: co-IP; endogenous proteins; extracts from differentiated HL-60 cells immunoprecipitated with anti-RNF128, anti-MPO or anti-IgG overnight at 4 °C, Dynabeads Protein G, washes with SNNTE buffer (0.5 M NaCl, 1% NP-40); immunoblot
T1 sequence: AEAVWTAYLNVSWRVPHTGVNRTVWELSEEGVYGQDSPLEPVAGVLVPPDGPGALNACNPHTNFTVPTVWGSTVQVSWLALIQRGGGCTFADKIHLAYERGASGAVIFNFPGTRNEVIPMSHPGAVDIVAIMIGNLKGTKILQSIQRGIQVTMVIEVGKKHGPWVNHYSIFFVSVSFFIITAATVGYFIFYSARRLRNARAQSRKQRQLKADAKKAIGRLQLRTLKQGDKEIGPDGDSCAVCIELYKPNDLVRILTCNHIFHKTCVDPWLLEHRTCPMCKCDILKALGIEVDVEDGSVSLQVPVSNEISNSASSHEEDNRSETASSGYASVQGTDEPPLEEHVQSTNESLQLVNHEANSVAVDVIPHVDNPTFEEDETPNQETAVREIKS

[2] = target: T2, RNF128, RING finger protein 128 (mouse (endogenous in MH-S)) (UniProt Q9D304); assay: co-IP; endogenous proteins; extracts from MH-S cells immunoprecipitated with anti-RNF128, anti-TLR4 or anti-IgG overnight at 4 °C, Dynabeads Protein G, washes with SNNTE buffer (0.5 M NaCl, 1% NP-40); immunoblot
T2 sequence: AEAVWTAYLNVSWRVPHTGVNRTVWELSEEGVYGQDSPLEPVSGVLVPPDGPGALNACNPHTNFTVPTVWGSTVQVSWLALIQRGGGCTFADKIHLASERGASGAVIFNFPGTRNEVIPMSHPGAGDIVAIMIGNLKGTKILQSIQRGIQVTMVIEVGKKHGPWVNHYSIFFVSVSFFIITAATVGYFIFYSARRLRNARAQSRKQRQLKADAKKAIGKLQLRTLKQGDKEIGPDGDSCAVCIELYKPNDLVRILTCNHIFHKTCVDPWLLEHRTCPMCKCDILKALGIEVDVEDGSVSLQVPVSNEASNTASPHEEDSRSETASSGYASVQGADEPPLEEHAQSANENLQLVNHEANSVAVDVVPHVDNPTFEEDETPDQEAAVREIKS

[3] = target: Myeloperoxidase (human (endogenous in HL-60)) (UniProt P05164); assay: co-IP; endogenous proteins; extracts from differentiated HL-60 cells immunoprecipitated with anti-RNF128, anti-MPO or anti-IgG overnight at 4 °C, Dynabeads Protein G, washes with SNNTE buffer (0.5 M NaCl, 1% NP-40); immunoblot
[4] = target: TLR4 (mouse (endogenous in MH-S)) (UniProt Q9QUK6); assay: co-IP; endogenous proteins; extracts from MH-S cells immunoprecipitated with anti-RNF128, anti-TLR4 or anti-IgG overnight at 4 °C, Dynabeads Protein G, washes with SNNTE buffer (0.5 M NaCl, 1% NP-40); immunoblot

Molecule: Myeloperoxidase (from UniProt P05164 49-745)
binding [1]: binds

Molecule: TLR4 (from UniProt Q9QUK6 26-835) (receptor)
binding [2]: binds

Second part, the molecule after the results:

binding [3]: binds
B1: RNF128, RING finger protein 128 (protein, UniProt Q8TEB7 39-428)
chain: T1 sequence

binding [4]: binds
B2: RNF128, RING finger protein 128 (protein, UniProt Q9D304 39-428)
chain: T2 sequence
